In PMC6405243 one finds binding data, which are given here for 3 molecules.

These are yes or no findings as the source states them, for the method shown. For part of these data: Binding seen in cells or lysates may run through a third protein. Some binding calls cover weakened binding; strength is not graded here. For part of these data: Tags and fused reporters may be left off the sequences shown.

In assay [1] the target is T1, Atg12 lacking the N-terminal 56 residues (Atg12^ΔN56) (S. cerevisiae) (UniProt P38316).
T1 sequence: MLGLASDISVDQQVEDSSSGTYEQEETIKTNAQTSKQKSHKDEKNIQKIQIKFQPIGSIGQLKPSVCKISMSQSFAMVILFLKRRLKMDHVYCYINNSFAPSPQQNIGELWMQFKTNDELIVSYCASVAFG
Description: co-IP; as a2, anti-FLAG precipitation of Atg5-FLAG from atg12Δ cells expressing Atg12^ΔN56 from a centromeric plasmid; rapamycin 2 hr; immunoblot for Atg17. (In general: Immunoblotting shows a protein as a band on a membrane.)

Assay [2] deals with T2, Atg12 C-terminally fused with GFP (Atg12-GFP) (S. cerevisiae) (UniProt P38316).
T2 sequence: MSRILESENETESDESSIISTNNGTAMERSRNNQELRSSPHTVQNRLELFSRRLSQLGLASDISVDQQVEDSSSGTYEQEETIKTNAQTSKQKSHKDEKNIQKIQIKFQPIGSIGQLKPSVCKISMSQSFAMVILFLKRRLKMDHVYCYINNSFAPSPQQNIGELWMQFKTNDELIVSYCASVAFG
Description: co-IP; GFP-binding protein-conjugated beads, Atg12-GFP as bait; atg1Δ atg13Δ atg29Δ atg31Δ (strain also atg11Δ) cells overexpressing ATG17 and ATG12-GFP with the ADH1 promoter; rapamycin 2 hr; immunoblot.

Assay [3] has as its target T3, Atg12 fused with the Gal4 DNA-binding domain (pGBD-ATG12) (S. cerevisiae) (UniProt P38316).
T3 sequence: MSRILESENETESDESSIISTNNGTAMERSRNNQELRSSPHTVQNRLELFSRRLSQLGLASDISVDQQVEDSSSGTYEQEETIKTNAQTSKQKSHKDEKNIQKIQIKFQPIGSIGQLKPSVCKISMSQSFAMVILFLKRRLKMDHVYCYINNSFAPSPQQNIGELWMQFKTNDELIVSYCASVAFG
Description: two-hybrid; AH109 cells with GAD and GBD fusions, 30°C, 3 days, growth on -LWH or -LWA plates; also in atg13Δ atg31Δ AH109 cells.

B1: Atg17 (protein, UniProt Q06410 1-417)
chain: MNEADVTKFVNNARKTLTDAQLLCSSANLRIVDIKKKLSSWQLSISKLNFLIVGLRQQGKFLYTILKEGIGTKLIQKQWNQAVLVVLVDEMKYWQYEITSKVQRLDGIVNELSISEKDDTDPSKLGDYISRDNVNLLNDKLKEVPVIERQIENIKLQYENMVRKVNKELIDTKLTDVTQKFQSKFGIDNLMETNVAEQFSRELTDLEKDLAEIMNSLTQHFDKTLLLQDKKIDNDEREELFKVVQGDDKELYNIFKTLHEVIDDVDKTILNLGQFLQAKIKEKTELHSEVSEIINDFNRNLEYLLIFKDISNLIDSFKNSCTQDIQTTKELCEFYDNFEESYGNLVLEAKRRKDVANRMKTILKDCEKQLQNLDAQDQEERQNFIAENGTYLPETIWPGKIDDFSSLYTLNYNVKNP
On to B1, for which the binding result in assay [1] is listed as “binds weakly”.

B2: Atg17 overexpressed with the ADH1 promoter (protein, UniProt Q06410 1-417)
chain: MNEADVTKFVNNARKTLTDAQLLCSSANLRIVDIKKKLSSWQLSISKLNFLIVGLRQQGKFLYTILKEGIGTKLIQKQWNQAVLVVLVDEMKYWQYEITSKVQRLDGIVNELSISEKDDTDPSKLGDYISRDNVNLLNDKLKEVPVIERQIENIKLQYENMVRKVNKELIDTKLTDVTQKFQSKFGIDNLMETNVAEQFSRELTDLEKDLAEIMNSLTQHFDKTLLLQDKKIDNDEREELFKVVQGDDKELYNIFKTLHEVIDDVDKTILNLGQFLQAKIKEKTELHSEVSEIINDFNRNLEYLLIFKDISNLIDSFKNSCTQDIQTTKELCEFYDNFEESYGNLVLEAKRRKDVANRMKTILKDCEKQLQNLDAQDQEERQNFIAENGTYLPETIWPGKIDDFSSLYTLNYNVKNP
As to B2, the binding entry in assay [2] is “binds”.

B3: Atg17 fused with the Gal4 activation domain (pGAD-ATG17) (protein, UniProt Q06410 1-417)
chain: MNEADVTKFVNNARKTLTDAQLLCSSANLRIVDIKKKLSSWQLSISKLNFLIVGLRQQGKFLYTILKEGIGTKLIQKQWNQAVLVVLVDEMKYWQYEITSKVQRLDGIVNELSISEKDDTDPSKLGDYISRDNVNLLNDKLKEVPVIERQIENIKLQYENMVRKVNKELIDTKLTDVTQKFQSKFGIDNLMETNVAEQFSRELTDLEKDLAEIMNSLTQHFDKTLLLQDKKIDNDEREELFKVVQGDDKELYNIFKTLHEVIDDVDKTILNLGQFLQAKIKEKTELHSEVSEIINDFNRNLEYLLIFKDISNLIDSFKNSCTQDIQTTKELCEFYDNFEESYGNLVLEAKRRKDVANRMKTILKDCEKQLQNLDAQDQEERQNFIAENGTYLPETIWPGKIDDFSSLYTLNYNVKNP
Regarding B3, in assay [3], the binding result was “binds”.
